# The other results are listed elsewhere or left out. Shown are side measurements of this screen, not its main read-out; they come without a call. Compounds called inactive in the main read-out are mostly missing here. Potencies come from curve fits of mixed quality, noted in brackets.
# Assay: qHTS Assay to Find Inhibitors of Chronic Active B-Cell Receptor Signaling
# Conditions: ABC-DLBCL IkBa-CBG/CBR reporter, luminescence ratio (green luciferase fused to IkBa over red control in TMD8 lymphoma cells), 4 h
# Summary of the method: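 Compounds up to 46 uM were incubated four hours with TMD8 cells whose green CBG68 luciferase is fused to IkappaBalpha; red CBR luminescence normalised the signal, and concentration-effect curves were fitted to fusion, red and ratio data.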
# [1] = measured here: CBR red luminescence, cell number
# [2] = measured here: IkBa-CBG green luminescence
smiles,measurement,setting,value
O=c1[nH]c(=O)n(Cc2ccco2)c2c1C(C(F)(F)F)(C(F)(F)F)N=C(Cc1ccccc1)N2,AC50,[1],"3.98 µM [rising, full curve, poor fit]"
CC1CC(C)CN(CCOc2cccc(Cl)c2Cl)C1 (stereo not drawn),AC50,[1],"18.4 µM [falling, partial curve, poor fit]"
CCOC(=O)C1CCN(S(=O)(=O)c2ccc(-c3cc(C(F)(F)F)n(C)n3)s2)CC1,AC50,[1],"17.8 µM [falling, partial curve, poor fit]"
CC(=O)n1c2c(c3ccccc31)OC(N)=C(C#N)C2c1ccc(C(C)C)cc1 (stereo not drawn),AC50,[1],"12.6 µM [falling, partial curve, poor fit]"
CC1(C)Cc2c(sc(NC(=O)c3ccco3)c2C#N)CO1,AC50,[1],"2.82 µM [rising, partial curve, poor fit]"
Cc1ccc(C2=NC(C)(C)N=C2SCC(=O)Nc2ccc(Cl)cc2)cc1,AC50,[1],"18.4 µM [falling, single point]"
O=C(NC1CCCCC1)c1cc(N2C(=O)CCC2=O)ccc1Cl,AC50,[1],"0.224 µM [rising, full curve, poor fit]"
O=C(Nc1nncs1)c1ccc2c(c1)OCO2,AC50,[1],"2.51 µM [falling, full curve]"
O=C(COc1ccccc1[N+](=O)[O-])Nc1ccc(Br)cc1,AC50,[1],"8.91 µM [rising, full curve, poor fit]"
COc1ccc(/C=N/NC(=O)c2cccnc2)cc1CN1CCCc2ccccc21,AC50,[1],"20 µM [falling, single point]"
Cc1cccc(NC(=O)CSc2nc3ccccc3c(=O)n2CC2CCCO2)c1 (stereo not drawn),AC50,[1],"29.1 µM [falling, single point]"
O=C(Nc1ccccc1C(=O)NCc1ccccc1)c1ccco1,AC50,[1],"6.51 µM [falling, partial curve, poor fit]"
same,AC50,[2],"3.66 µM [rising, partial curve, poor fit]"
CCCn1c(=O)[nH]c(=O)c2c1nc(-c1ccc(OC(F)F)c(OC)c1)n2CCOC,AC50,[1],"8.2 µM [rising, single point]"
C/C(=N\Nc1nncc2ccccc12)c1ccc(C(C)(C)C)cc1,AC50,[1],"0.112 µM [rising, full curve, poor fit]"
COc1ccc(CN2CCN(Cc3cccn3-c3ncccn3)CC2CCO)c(C)c1C (stereo not drawn),AC50,[1],"0.708 µM [rising, partial curve, poor fit]"
Cc1nnc(SC(=O)N2c3ccccc3Sc3ccccc32)s1,AC50,[1],"8.2 µM [falling, partial curve]"
Cc1ccc(NC(=O)CCCc2nc3ccccc3s2)c(O)c1,AC50,[1],"3.16 µM [rising, single point]"
COc1ccccc1Nc1ccc(C(=O)O)cc1[N+](=O)[O-],AC50,[1],"5.01 µM [falling, partial curve]"
CC1(c2ccc(Cl)cc2)NC(=O)N(CC(=O)Nc2ccc(F)cc2)C1=O (stereo not drawn),AC50,[1],"12.6 µM [falling, partial curve, poor fit]"
O=C(Nc1ccc(Oc2cccc3ccccc23)cc1)c1ccco1,AC50,[1],"2.59 µM [rising, partial curve]"
Cc1cc(SCC#N)n2nc(C)c(-c3ccccc3)c2n1,AC50,[1],"8.91 µM [falling, partial curve]"
same,AC50,[2],"2.51 µM [falling, full curve]"
CCCCSc1ncc(C(=O)OCC)c(N)n1,AC50,[1],"2.59 µM [rising, partial curve, poor fit]"
CC(C)Cc1cc(C(=O)N2CCC(N3CCC(C(=O)NC4CC4)CC3)CC2)n[nH]1,AC50,[1],"10 µM [falling, partial curve]"
CC1CCc2c(sc3nc(SCC(=O)NCc4ccco4)nc(N)c23)C1 (stereo not drawn),AC50,[1],"17.8 µM [falling, partial curve]"
COc1ccccc1N1CCN(S(=O)(=O)c2cccs2)CC1,AC50,[1],"32.6 µM [rising, partial curve, poor fit]"
CNC(=O)NC(=O)COC(=O)CCCSc1nc2ccccc2s1,AC50,[1],"9.2 µM [falling, partial curve]"
Cc1cccc(-n2ccc(=O)c(C(=O)O)n2)c1,AC50,[1],"2.82 µM [rising, single point]"
O=C1CCc2cc(S(=O)(=O)NCc3ccccc3)cc3c2N1CC3,AC50,[1],"0.651 µM [rising, full curve, poor fit]"
CC1CCCCN1C(=O)COC(=O)CNC(=O)c1ccc(Cl)cc1Cl (stereo not drawn),AC50,[1],"32.6 µM [rising, partial curve, poor fit]"
Cc1ccc2nc(NC(=O)CC3Oc4ccccc4NC3=O)sc2c1 (stereo not drawn),AC50,[1],"1.41 µM [rising, full curve, poor fit]"
COc1ccc(CCNC(=O)c2cc(Nc3ccccc3)nc3ccccc23)cc1OC,AC50,[1],"7.08 µM [falling, full curve, poor fit]"
CCCCNC(=O)c1onc(CSc2ccccc2)c1C(=O)O,AC50,[1],"35.5 µM [falling, single point]"
c1ccc(OCc2nnc(-c3ccccc3)o2)cc1,AC50,[1],"15.8 µM [falling, single point]"
C=CCc1cc(/C=N/n2cnnc2)cc(OCC)c1O,AC50,[1],"10 µM [rising, partial curve, poor fit]"
S=c1[nH]c(-c2ccccc2)cn1/N=C/c1ccncc1,AC50,[1],"35.5 µM [falling, single point]"
O=C(O)CC1=C(Nc2ccccc2)C(=O)N(c2ccccc2)C1c1ccc(F)cc1 (stereo not drawn),AC50,[1],"23.1 µM [falling, single point]"
N#CC(C#N)=NNc1ccc(S(=O)(=O)N2CCCCC2)cc1,AC50,[1],"32.6 µM [falling, single point]"
COc1cccc(-c2sc3ccc(OC)cc3c2-c2ccc(OCCN3CCCCC3)cc2)c1,AC50,[2],"23.1 µM [falling, partial curve, poor fit]"
COc1ccc(C2C(C(C)=O)=C(O)C(=O)N2c2ccc(C)cc2)cc1 (stereo not drawn),AC50,[1],"11.2 µM [rising, single point]"
Cc1ccc(C(=O)Nc2ccc(N3CCN(C(=O)c4cccs4)CC3)cc2)c(Cl)c1,AC50,[1],"10 µM [falling, partial curve]"
Cc1cc2c(cc(C(=O)NCCCN3CCOCC3)n2Cc2ccc(Cl)cc2)o1,AC50,[1],"20.6 µM [rising, partial curve, poor fit]"
NC(=O)c1ccccc1NC(=O)CCCc1ccccc1,AC50,[1],"15.8 µM [falling, single point]"
OC(c1cc(-c2ccc(Cl)cc2)nc2ccccc12)C1CCCCN1 (stereo not drawn),AC50,[1],"20 µM [falling, partial curve, poor fit]"
CCN(CC)c1ccc(N=Nc2nn(C)c(C)c2[N+](=O)[O-])cc1,AC50,[1],"13 µM [rising, partial curve]"
COc1ccc(-c2nnn(Cc3nc(N)nc(N4CCOCC4)n3)n2)cc1OC,AC50,[1],"1.78 µM [falling, partial curve, poor fit]"
CCCCC(=O)NC(=S)Nc1nnn(CCC)n1,AC50,[1],"22.4 µM [falling, partial curve]"
same,AC50,[2],"2.82 µM [falling, full curve]"
O=C(COc1ccc(CO)cc1Cl)Nc1ccc(F)cc1,AC50,[1],"20.6 µM [falling, single point]"
O=C(O)c1ccc(-c2nc3ccccc3s2)o1,AC50,[1],"7.08 µM [falling, partial curve]"
same,AC50,[2],"12.6 µM [rising, partial curve, poor fit]"
O=C(Nc1ccc(-c2csc(-c3ccccc3)n2)cc1)c1ccccc1Cl,AC50,[1],"1.58 µM [falling, full curve, poor fit]"
Cc1cccc2cc(CN(C(=O)c3cnccn3)C3CCCCC3)c(Cl)nc12,AC50,[1],"29.1 µM [falling, single point]"
Cn1c(SCC(=O)c2ccc(O)c(O)c2)nnc1-c1cccs1,AC50,[1],"17.8 µM [falling, single point]"
NC(=O)CN1C(=O)C(O)(CC(=O)/C=C\C=C\c2ccccc2)c2ccccc21 (stereo not drawn),AC50,[1],"10.3 µM [falling, partial curve, poor fit]"
CCOc1ccccc1C1CC(=O)Nc2cc3c(cc21)OCO3 (stereo not drawn),AC50,[1],"12.6 µM [rising, partial curve]"
same,AC50,[2],"22.4 µM [falling, single point]"
Cc1nc(-c2ccccc2)sc1C(=O)O,AC50,[1],"3.98 µM [falling, full curve]"
S=C(NCCc1ccccn1)Nc1cccc(Cl)c1,AC50,[1],"1.84 µM [rising, partial curve, poor fit]"
CCOc1ccc(NC(=S)N(Cc2ccc(N(C)C)cc2)Cc2ccco2)cc1,AC50,[1],"35.5 µM [falling, single point]"
Cc1noc(C)c1-c1ccc2ncnc(NCc3cccc(-c4ccccc4)c3)c2c1,AC50,[1],"32.6 µM [falling, single point]"
CSc1nnc(NC(=O)CCc2ccccc2)s1,AC50,[1],"35.5 µM [falling, single point]"
COc1ccc(C(=O)Nc2cccc3c2CCCC3)cc1OC,AC50,[1],"0.891 µM [rising, full curve, poor fit]"
O=c1oc2ccccc2c(N2CCC(c3ccccc3)CC2)c1[N+](=O)[O-],AC50,[1],"22.4 µM [falling, partial curve, poor fit]"
c1ccc(-c2nnc(-c3ccccc3)c(-c3c[nH]c4ccccc34)n2)cc1,AC50,[1],"0.112 µM [rising, full curve, poor fit]"
Cc1cc(N2CCN(C)CC2)nc2ccc(NC(=S)N3CCN(c4cccc(Cl)c4)CC3)cc12,AC50,[1],"3.55 µM [falling, single point]"
CCOc1ccc(NC(=O)CN(C)CC(=O)Nc2cc(Cl)ccc2C#N)cc1OCC,AC50,[1],"32.6 µM [falling, single point]"

# Laid out differently: entries from further up.
smiles | measurement | setting | value
COc1cccc(-c2sc3ccc(OC)cc3c2-c2ccc(OCCN3CCCCC3)cc2)c1 | AC50 | [2] | 23.1 µM [falling, partial curve, poor fit]
COc1ccc(C2C(C(C)=O)=C(O)C(=O)N2c2ccc(C)cc2)cc1 (stereo not drawn) | AC50 | [1] | 11.2 µM [rising, single point]
Cc1ccc(C(=O)Nc2ccc(N3CCN(C(=O)c4cccs4)CC3)cc2)c(Cl)c1 | AC50 | [1] | 10 µM [falling, partial curve]
